In PubChem BioAssay AID493014 (National Center for Advancing Translational Sciences (NCATS), 2011) one finds AC50 data, which are given here for 40 molecules.

A word on the AC50: it is the concentration giving half of the maximal activity seen.

The other results are listed elsewhere or left out. The main result of the screen is listed elsewhere. These columns were measured beside it and carry no call. Compounds called inactive in the main read-out are mostly missing here. Potencies come from curve fits of mixed quality, noted in brackets.

The experiment in a line: qHTS Assay to Find Inhibitors of Chronic Active B-Cell Receptor Signaling. The following applies: ABC-DLBCL IkBa-CBG/CBR reporter, luminescence ratio (green luciferase fused to IkBa over red control in TMD8 lymphoma cells), 4 h. In short, it runs like this: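 TMD8 ABC-DLBCL cells carrying doxycycline-inducible green luciferase fused to IkappaBalpha plus unfused red luciferase were exposed to compounds (up to 46 uM) for 4 hrs at 37C. Activity came from the overlap-corrected green/red luminescence ratio.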
(qHTS replaces the single test concentration by a dilution series.)

The mark [1] stands for this setting: measured here: CBR red luminescence, cell number.
Where [2] appears, read: measured here: IkBa-CBG green luminescence.

On to `CCN(CC)S(=O)(=O)c1ccc2c3c(cccc13)C(=O)N2`, for which, under setting [1], the AC50 was 29.1 µM [rising, single point]. On the same count and under the same terms, under `O=C(COC(=O)c1cc([N+](=O)[O-])ccc1N1CCOCC1)c1ccc(OC(F)F)cc1OC(F)F` stands 3.26 µM [rising, full curve, poor fit]; under `O=C(CCCN1C(=O)/C(=C/c2cccs2)SC1=S)NNC(=O)c1ccccc1O`, 1.46 µM [falling, full curve, poor fit]. In the case of `COc1ccc2c(Cl)c(C(=O)NCCCn3ccnc3)sc2c1Cl`, the AC50 under setting [1] was 5.62 µM [rising, partial curve].

In the case of `CCOC(=O)C1=C(COC(=O)c2c(OC)cccc2OC)NC(=O)NC1C` (stereo not drawn), under setting [1], the half-maximal activity concentration (AC50) is 29.1 µM [falling, single point].

For `CCCN1C(=O)c2ccccc2NC1c1ccc(OC)c(CSc2ccccn2)c1` (stereo not drawn), the concentration at half-maximal activity (AC50) under setting [1] was 29.1 µM [falling, single point]. On the same count and under the same terms, under `COc1ccc(S(=O)(=O)NN=C2CCCCC2)cc1` stands 0.112 µM [falling, full curve, poor fit]; under `O=C1Nc2c(c(=O)[nH]c(=O)n2-c2ccccc2)C1(Nc1ncccn1)C(F)(F)F` (stereo not drawn), 25.9 µM [rising, single point]; under `O=C(CCn1c(=O)[nH]c2ccsc2c1=O)NCCc1ccc(Cl)cc1`, 4.11 µM [rising, full curve, poor fit]. Take `COc1nnc(-c2ccccc2)s1`: under setting [1], the AC50 is 3.26 µM [rising, single point]. `C=CCn1c(=NC(=O)CC)n(C)c2ccccc21`: the AC50 under setting [1] is 4.61 µM [rising, partial curve, poor fit]. With `CCN1CCN(c2nc3ccccn3c(=O)c2C=O)CC1`, under setting [1], the AC50 is 3.55 µM [rising, single point]. Still for that read-out and setting: under `Cc1cccc(NC(=O)C2CCCN(C(=O)Nc3ccc(F)cc3)C2)c1C` (stereo not drawn) stands 35.5 µM [rising, single point]. Same read-out and setting: under `O=C(c1cc(-c2ccc(Cl)cc2)on1)N1CCOCC1` stands 1.64 µM [falling, full curve, poor fit]; under `N#Cc1c(C#N)c(-c2ccccc2)n(-c2ccccc2)c1N`, 3.55 µM [rising, partial curve, poor fit]; under `COc1ccc(/C=C(/NC(=O)c2ccccc2OC)C(=O)Nc2ccc(C(=O)O)cc2)cc1`, 1.78 µM [rising, full curve, poor fit].

As to `O=C(CN1C(=O)c2ccccc2C1=O)Nc1ccccc1C(=O)N1CCCC1`, the concentration at half-maximal activity (AC50) under setting [1] is 14.6 µM [rising, partial curve, poor fit]. The same measure, in the same setting: the figure for `CCN(CC)S(=O)(=O)c1cccc(C(=O)N[C@H](C(=O)Nc2nc3ccccc3s2)C(C)C)c1` is 29.1 µM [rising, single point]. For the molecule `COc1cc(OC)cc(C(=O)NCC(=O)Nc2ccc(-c3ccccc3)cc2)c1`, the concentration at half-maximal activity (AC50) is, setting by setting: under setting [1], 11.2 µM [rising, partial curve, poor fit]; under setting [2], 15.8 µM [falling, partial curve]. As for `CCC(CO)Oc1cc(NCc2ccccc2C(F)(F)F)c2ncn(C(C)C)c2c1` (stereo not drawn), the AC50 under setting [1] is 0.731 µM [rising, full curve, poor fit].

As for `CCOC(=O)CNC(=O)CSc1nc(-c2cccc(C)c2)ns1`, under setting [1], the AC50 was 35.5 µM [falling, single point].

Consider `Cc1nn(Cc2c(F)c(F)c(F)c(F)c2F)c(C)c1NC(=O)c1c([N+](=O)[O-])cnn1C`, for which the AC50 under setting [1] was 29.1 µM [falling, single point].

Turning to `O=C(CN1C(=O)c2ccccc2S1(=O)=O)Nc1ccccc1`, the concentration at half-maximal activity (AC50) under setting [1] is 1.78 µM [falling, partial curve]. For `COc1ccc(/C=C2\SC(=S)N(CCCCCC(=O)Nc3cc(C)on3)C2=O)cc1OC`, under setting [1], the AC50 is 6.31 µM [falling, partial curve]. Consider `Cc1ccc(Sc2c(CO)c(-c3ccccc3)nn2C)cc1`, for which the AC50 is 3.16 µM [rising, single point] under setting [1] and 3.98 µM [falling, partial curve] under setting [2]. In the case of `Cn1c(SCC(=O)N2CCCCC2)nc2c([nH]c3ccccc32)c1=O`, under setting [1], the AC50 was 1.3 µM [falling, full curve]. For `CC(=O)C(Sc1nc(N(C)C)nc(N(C)C)n1)C(=O)Nc1ccccc1` (stereo not drawn), under setting [1], the AC50 is 17.8 µM [rising, partial curve, poor fit]. The same measure, in the same setting: under `CCCSc1ccc([C@H]2N[C@@](Cc3ccccc3)(C(=O)OC)[C@H]3C(=O)N(CC)C(=O)[C@@H]23)cc1` stands 0.58 µM [falling, full curve, poor fit].

`O=C(O)c1nn(CCOc2ccc(Br)cc2)c(=O)c2ccccc12`: under setting [1], the concentration at half-maximal activity (AC50) is 1.41 µM [rising, partial curve, poor fit]. Still for that read-out and setting: the figure for `CCc1cc(C(=O)Nc2ccccc2)cs1` is 5.8 µM [falling, single point]; for `O=C(NC(=S)N1CCN(Cc2ccc3c(c2)OCO3)CC1)c1ccc(Cl)cc1` it is 20.6 µM [rising, single point]; for `Cc1cc(=O)n2[nH]c(-c3ccc(Cl)cc3)cc2n1` it is 5.8 µM [falling, partial curve].

As for `COc1ccc(C2(C)NC(=O)N(CC(=O)Nc3ccc(Br)c(C)c3)C2=O)cc1OC` (stereo not drawn), the AC50 under setting [1] is 12.6 µM [rising, partial curve]. As to `Nc1ncnc2c1ncn2C1OC(C(=O)NC2CC2)C(O)C1O` (stereo not drawn), the half-maximal activity concentration (AC50) reads like this: under setting [1], 0.0231 µM [rising, full curve, poor fit]; under setting [2], 0.146 µM [falling, full curve].

For the molecule `CC(C)c1ccc(-c2nnn(CCC#N)n2)cc1`, under setting [1], the AC50 was 10 µM [rising, partial curve, poor fit]. For `O=C(Nc1nccs1)c1cc(-c2ccco2)nc2ccccc12`, the AC50 under setting [1] was 1.64 µM [falling, full curve]. On the same count and under the same terms, the figure for `CCCCN(C)C(=O)c1ccc2c(c1)N(Cc1cccc(F)c1)C(=O)c1ccccc1S2` is 35.5 µM [falling, single point]; for `Oc1cccc(Nc2nc(NCC3CCCO3)c3ccccc3n2)c1` (stereo not drawn) it is 29.1 µM [falling, single point]. The same measure, in the same setting: the figure for `Cc1cccc(N(C)C(=O)c2cc3c(=O)[nH]c4ccc(C)cc4c3s2)c1` is 8.91 µM [rising, partial curve, poor fit]; for `O=C(O)COc1ccc(NC(=O)c2ccc(NC(=O)c3ccco3)cc2)cc1` it is 35.5 µM [falling, single point].
